Reference: US20210015870A1 (PROMAB BIOTECHNOLOGIES, published 2021)
Results are given in words; binding and its absence hold for the method and conditions named. Some results given as binding are weak or reduced against the parent protein; the word gives no strength.

Sequences of proteins named here, by UniProt entry; tags and fusion partners are left off. A change or cut given only in a name is not applied to a line headed by its entry.
UniProt Q02223: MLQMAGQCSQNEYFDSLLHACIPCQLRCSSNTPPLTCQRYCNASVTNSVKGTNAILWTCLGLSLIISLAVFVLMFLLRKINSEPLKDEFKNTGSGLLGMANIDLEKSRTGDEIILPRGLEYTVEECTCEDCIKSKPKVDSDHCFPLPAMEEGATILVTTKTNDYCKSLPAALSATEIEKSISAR

Biological target: BCMA (CD269)-human Fc protein expressed in transfected 293 cells (human) (UniProt Q02223)
Assay: immunostaining of 293 cells transfected with BCMA (CD269)-human Fc

B1: mouse monoclonal anti-human BCMA antibody clone 4C8A (antibody, mouse IgG1, V domains shown)
VH: VQLQQSGPELVKPGASVKMSCKASGYTFTSYVMHWVKQKPGQGLEWIGYIIPYNDATKYNEKFKGKATLTSDKSSSTAYMELSSLTSEDSAVYYCARYNYDGYFDVWGAGTTVTVSS
VL: DIVMTQSPATLSVTPGDRVSLSCRASQSISDYLHWYQQKSHESPRLLIKYASQSISGIPSRFSGSGSGSDFTLSINSVEPEDVGVYYCQNGHSFPPTFGGGTKLEIK
notes: also called BCMA mAb 4C8A; BCMA 4C8A antibody
In the case of B1, the binding is reported as “binds”.
